Laboratory results: PubChem BioAssay AID686938 (Drosophila RNAi Screening Center, 2013)

Screen: 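Fly genes required for calcium entry once internal stores are emptied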 (primary screen)
Cell system: Drosophila S2R+ cells
Reagents: long dsRNA against Drosophila genes, about 0.25 µg dsRNA per well, roughly 10,000 cells
Duration: 5 days of knock-down before the calcium assay
Challenge: thapsigargin (SERCA pump blocker) to empty calcium stores; entry signal taken 4 min after adding it
Measurement: 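Per-well fluo-4 fluorescence in two replicates, unnormalised, measured in resting cells and 4 min after store depletion by the SERCA blocker thapsigargin; ratio of the two present in few wells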
Direction: calcium entry signal: higher = stronger calcium signal after store depletion; resting calcium signal: higher = higher resting calcium signal
Rule for the call: 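Called when the plate z-score of the entry-to-rest ratio, mean of duplicates, falls below −3; wells with low overall dye signal (Fmax z below −2) or more than five off-targets excluded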
Calls: active = strongly reduced calcium entry; inactive = no strong reduction
In all, the deposit lists about 23,000 reagents; shown is an unselected part of those that have a named target and a result. Over the whole deposit, 75 (0.33%) got an active call. 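Raw plate signals without normalisation; calls rest on plate z-scores that were not deposited; ratio present for only 364 wells.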 Names joined by + are all predicted targets of the reagent. Not stated in the record: the dose of the treatment.

target | amplicon | calcium entry signal, replicate 1 (fluorescence units) | calcium entry signal, replicate 2 (fluorescence units) | resting calcium signal, replicate 1 (fluorescence units) | resting calcium signal, replicate 2 (fluorescence units) | outcome
BCAS2 | DRSC15693 | 4.44e7 | 5.69e7 | 2.06e7 | 2.48e7 | inactive
Obp50c + Obp50b | DRSC05482 | 5.07e7 | 4.82e7 | 2.67e7 | 1.99e7 | inactive
CG14881 | DRSC15005 | 3.98e7 | 4.58e7 | 1.87e7 | 7.51e7 | inactive
hrm (hermes) | DRSC04853 | 4.49e7 | 5.18e7 | 2.22e7 | 2.20e7 | inactive
CG8087 | DRSC16375 | 3.07e7 | 3.94e7 | 1.48e7 | 5.46e7 | inactive
CG15404 | DRSC00418 | 2.57e7 | 2.33e7 | 1.26e7 | 1.08e7 | inactive
CG17724 | DRSC06687 | 4.18e7 | 4.21e7 | 2.12e7 | 1.88e7 | inactive
CG15812 | DRSC08479 | 3.51e7 | 2.86e7 | 2.04e7 | 1.52e7 | inactive
CG13069 | DRSC09952 | 3.54e7 | 4.34e7 | 1.84e7 | 1.62e7 | inactive
Mpp6 (M-phase phosphoprotein 6) | DRSC03169 | 3.63e7 | 2.94e7 | 1.76e7 | 1.39e7 | inactive
CG5693 | DRSC02878 | 4.46e7 | 3.46e7 | 2.04e7 | 1.53e7 | inactive
Cap-D3 + tomb | DRSC02347 | 2.06e7 | 2.11e7 | 1.11e7 | 9.57e6 | inactive
ninaC (neither inactivation nor afterpotential C) | DRSC03579 | 4.00e7 | – | 2.14e7 | – | inactive
CG12479 | DRSC19459 | 2.94e7 | 2.51e7 | 1.46e7 | 1.13e7 | inactive
CG11905 | DRSC09863 | 2.12e7 | 3.15e7 | 1.09e7 | 2.21e7 | inactive
CG7509 | DRSC08596 | 4.95e7 | 3.64e7 | 3.25e7 | 1.57e7 | inactive
Hk (Hyperkinetic) | DRSC17638 | 2.23e7 | 2.81e7 | 1.38e7 | 1.57e7 | inactive
Hk (Hyperkinetic) | DRSC17639 | 3.62e7 | 3.69e7 | 1.87e7 | 2.04e7 | inactive
Hk (Hyperkinetic) | DRSC18138 | 5.06e7 | 5.00e7 | 2.35e7 | 2.40e7 | inactive
Hk (Hyperkinetic) | DRSC18674 | 4.52e7 | 3.77e7 | 2.31e7 | 2.04e7 | inactive
ss (spineless) | DRSC17069 | 4.23e7 | 5.29e7 | 1.98e7 | 7.98e7 | inactive
CG11106 | DRSC19381 | 3.52e7 | 3.84e7 | 1.76e7 | 1.81e7 | inactive
atms (antimeros) | DRSC12310 | 2.27e7 | 2.49e7 | 1.31e7 | 1.76e7 | inactive
CG10866 | DRSC08171 | 4.20e7 | 4.74e7 | 2.04e7 | 2.14e7 | inactive
LIMK1 (LIM domain kinase 1) | DRSC19811 | 3.50e7 | 4.04e7 | 1.74e7 | 1.85e7 | inactive
dpy (dumpy) | DRSC00233 | 2.41e7 | 3.47e7 | 1.38e7 | 1.65e7 | inactive
dpy (dumpy) | DRSC00234 | 3.39e7 | 3.72e7 | 1.73e7 | 1.71e7 | inactive
dpy (dumpy) | DRSC00472 | 3.17e7 | 2.81e7 | 1.50e7 | 1.31e7 | inactive
Osi5 (Osiris 5) | DRSC12276 | 4.87e7 | 4.06e7 | 2.14e7 | 1.74e7 | inactive
Pfdn1 (Prefoldin 1) | DRSC02325 | 3.84e7 | 3.19e7 | 1.89e7 | 1.57e7 | inactive
CG32212 + hpRNA:CR33940 | DRSC09618 | 3.33e7 | 3.67e7 | 1.72e7 | 1.50e7 | inactive
Patj | DRSC08712 | 3.78e7 | 3.86e7 | 1.79e7 | 1.86e7 | inactive
CG15330 | DRSC18014 | 3.00e7 | 4.47e7 | 1.53e7 | 2.15e7 | inactive
CG3982 | DRSC10394 | 2.32e7 | 2.81e7 | 1.24e7 | 1.33e7 | inactive
CG3982 | DRSC23139 | 3.70e7 | 3.48e7 | 2.01e7 | 1.74e7 | inactive
CDase (Ceramidase) | DRSC14932 | 2.98e7 | 4.12e7 | 1.63e7 | 1.90e7 | inactive
CG2608 | DRSC02709 | 4.46e7 | – | 2.45e7 | – | inactive
CG32181 | DRSC22635 | 4.69e7 | 4.00e7 | 2.85e7 | 1.77e7 | inactive
TTLL15 (Tubulin tyrosine ligase-like 15) | DRSC15543 | 3.40e7 | 3.47e7 | 1.61e7 | 1.81e7 | inactive
Klp68D (Kinesin-like protein at 68D) | DRSC11206 | 4.48e7 | 3.13e7 | 3.12e7 | 1.39e7 | inactive
Sam-S (S-adenosylmethionine Synthetase) | DRSC00758 | 2.99e7 | – | 1.53e7 | – | inactive
CG1801 | DRSC20556 | 4.53e7 | 4.63e7 | 2.43e7 | 1.94e7 | inactive
CG31010 | DRSC14006 | 2.77e7 | 3.64e7 | 1.33e7 | 1.45e7 | inactive
CG8202 | DRSC16396 | 4.16e7 | 3.24e7 | 1.98e7 | 1.57e7 | inactive
Grip91 (Gamma-tubulin ring protein 91) | DRSC20249 | 3.73e7 | 3.60e7 | 1.70e7 | 1.89e7 | inactive
CG13192 | DRSC06317 | 3.21e7 | 4.14e7 | 1.76e7 | 1.92e7 | inactive
puc (puckered) | DRSC17034 | 4.63e7 | 6.37e7 | 2.03e7 | 2.91e7 | inactive
CG17026 | DRSC10237 | 2.03e7 | 4.69e7 | 1.23e7 | 2.34e7 | inactive
kn (knot) | DRSC05505 | 3.33e7 | 5.97e7 | 1.46e7 | 2.66e7 | inactive
kn (knot) | DRSC05507 | 4.01e7 | 3.10e7 | 1.81e7 | 1.34e7 | inactive
kn (knot) | DRSC06196 | 3.10e7 | 3.40e7 | 1.68e7 | 1.62e7 | inactive
kn (knot) | DRSC07637 | 3.30e7 | 3.65e7 | 1.76e7 | 1.68e7 | inactive
kn (knot) | DRSC21533 | 3.75e7 | 4.08e7 | 2.22e7 | 1.95e7 | inactive
l(3)72Dp (lethal (3) 72Dp) | DRSC10477 | 4.44e7 | 6.05e7 | 2.24e7 | 2.60e7 | inactive
Glyp (Glycogen phosphorylase) | DRSC00752 | 4.02e7 | 2.18e7 | 1.83e7 | 1.20e7 | inactive
CG13049 | DRSC09930 | 2.91e7 | 5.41e7 | 1.47e7 | 2.22e7 | inactive
gkt + CR31953 | DRSC00709 | 4.37e7 | – | 2.44e7 | – | inactive
CG4678 | DRSC19911 | 3.59e7 | 2.96e7 | 1.86e7 | 1.33e7 | inactive
CG4678 | DRSC19912 | 3.88e7 | 3.01e7 | 1.95e7 | 1.46e7 | inactive

Reprinted from the listing for reference:
target | amplicon | calcium entry signal, replicate 1 (fluorescence units) | calcium entry signal, replicate 2 (fluorescence units) | resting calcium signal, replicate 1 (fluorescence units) | resting calcium signal, replicate 2 (fluorescence units) | outcome
Pfdn1 (Prefoldin 1) | DRSC02325 | 3.84e7 | 3.19e7 | 1.89e7 | 1.57e7 | inactive
CG32212 + hpRNA:CR33940 | DRSC09618 | 3.33e7 | 3.67e7 | 1.72e7 | 1.50e7 | inactive
Patj | DRSC08712 | 3.78e7 | 3.86e7 | 1.79e7 | 1.86e7 | inactive
CG15330 | DRSC18014 | 3.00e7 | 4.47e7 | 1.53e7 | 2.15e7 | inactive
CG3982 | DRSC10394 | 2.32e7 | 2.81e7 | 1.24e7 | 1.33e7 | inactive
CG3982 | DRSC23139 | 3.70e7 | 3.48e7 | 2.01e7 | 1.74e7 | inactive
CDase (Ceramidase) | DRSC14932 | 2.98e7 | 4.12e7 | 1.63e7 | 1.90e7 | inactive
CG2608 | DRSC02709 | 4.46e7 | – | 2.45e7 | – | inactive
CG32181 | DRSC22635 | 4.69e7 | 4.00e7 | 2.85e7 | 1.77e7 | inactive
